Patent US20210317221A1
No constants are given. Whether binding was seen depends on the method and setting. Some binding calls cover weakened binding; strength is not graded here. Sequences can lack the tags named with a protein.

Sequences of proteins named here, by UniProt entry; tags and fusion partners are left off. A change or cut given only in a name is not applied to a line headed by its entry.
UniProt P20333: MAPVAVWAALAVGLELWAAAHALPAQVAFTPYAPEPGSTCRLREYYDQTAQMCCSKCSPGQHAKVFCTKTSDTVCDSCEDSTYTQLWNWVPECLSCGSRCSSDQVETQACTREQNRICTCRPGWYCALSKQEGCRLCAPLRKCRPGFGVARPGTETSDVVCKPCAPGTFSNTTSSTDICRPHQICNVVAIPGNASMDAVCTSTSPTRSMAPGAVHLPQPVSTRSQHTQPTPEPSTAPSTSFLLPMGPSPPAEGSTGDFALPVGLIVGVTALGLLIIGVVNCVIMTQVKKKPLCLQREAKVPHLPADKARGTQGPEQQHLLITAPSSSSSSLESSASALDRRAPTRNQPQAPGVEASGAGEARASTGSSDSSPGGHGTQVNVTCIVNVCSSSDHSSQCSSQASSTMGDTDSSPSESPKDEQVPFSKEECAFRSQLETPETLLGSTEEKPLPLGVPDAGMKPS

Molecular target: recombinant human TNFR2 (human) (UniProt P20333)
Experiment: ELISA, linear peptide mapping experiment with full-length TNFR2

binding: binds
B1: antagonistic TNFR2 antibody TNFRAB1 (antibody, V domains shown)
VH: EVQLQESGGGLVKPGGSLKLSCAASGFTFSSYVMSWVRQTPEKRLEWVATISSGGSYTYYPDSVKGRFTISRDNAKNTLYLQMSSLRSEDTAMYYCARQRVDGYSSYWYFDVWGAGTAVTVSS
VL: DIVLTQSPAIMSASPGEKVTITCSASSSVYYMYWFQQKPGTSPKLWIYSTSNLASGVPVRFSGSGSGTSYSLTISRMEAEDAATYYCQQRRNYPYTFGGGTKLEIKR
